The assay in a line: qHTS Assay to Find Inhibitors of Chronic Active B-Cell Receptor Signaling. As to conditions: ABC-DLBCL IkBa-CBG/CBR reporter, luminescence ratio (green luciferase fused to IkBa over red control in TMD8 lymphoma cells), 4 h. Summed up: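 TMD8 human ABC-DLBCL cells with doxycycline-inducible IκBα–green luciferase fusion and unfused red luciferase, in 0.5% FBS medium; compounds up to 46 uM, 4 h at 37C. Green/red luminescence ratio, filter-overlap corrected, fitted to concentration-response curves.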
(qHTS replaces the single test concentration by a dilution series.)

Setting [1] is: measured here: CBR red luminescence, cell number.
The mark [2] stands for this setting: measured here: IkBa-CBG green luminescence.

SMILES strings stand for the structures. This is one part of the list. Further columns of the screen follow, without active or inactive calls. Most of these compounds were active or inconclusive in the main read-out, so they are no random draw. Potencies come from curve fits of mixed quality, noted in brackets.

Take `COc1ccccc1NC(=O)Nc1nn(C)c2cccc(OC)c12`: the AC50 under setting [1] is 11.2 µM [falling, partial curve, poor fit].
Still for that read-out and setting: to `COc1ccc2nc(SCC(=O)Nc3c(C)cc(C)cc3C)[nH]c2c1` belongs 11.2 µM [falling, partial curve, poor fit]; to `CCOc1cc(/C=C2\SC(=N)N(c3nccs3)C2=O)ccc1OCCN1CCOCC1`, 29.1 µM [rising, single point]; to `CCCCn1c(NCc2ccccc2O)nc2ccccc21`, 20.6 µM [falling, single point].
The same measure, in the same setting: to `CNC(=O)/C(C#N)=C/c1ccc(-c2ccc(OC)cc2[N+](=O)[O-])o1` belongs 6.51 µM [falling, single point]; to `O=C(Nc1cc(C(F)(F)F)ccc1Cl)c1cccnc1`, 20 µM [rising, partial curve, poor fit].
On to `COC(=O)Cc1c(C)nc2nc(-c3ccco3)[nH]n2c1=O`, for which the AC50 under setting [1] was 23.1 µM [falling, partial curve, poor fit].
The same measure, in the same setting: to `O=C(CSc1nnc2c3ccccc3c3ccccc3c2n1)Nc1ccccc1F` belongs 1.41 µM [falling, full curve].
In the case of `CC(=O)C1=C(C)NC(SCC(=O)c2cc(Cl)ccc2Cl)=C(C#N)C1c1ccco1` (configuration not stated), the AC50 under setting [1] was 25.1 µM [falling, single point].
On the same count and under the same terms, to `CC(=O)c1ccc(NC(=S)Nc2ccc(Br)c(Cl)c2)cc1` belongs 17.8 µM [rising, partial curve, poor fit].
In the case of `CNC(=O)c1nnsc1S(=O)c1ccc(Cl)cc1` (configuration not stated), the concentration at half-maximal activity (AC50) by setting is: under setting [1], 2 µM [falling, full curve]; under setting [2], 4.47 µM [rising, full curve].
As to `C=CCN1C(=O)N(c2ccc(Cl)cc2)C(=O)C1CC(=O)Nc1ccc(F)cc1` (configuration not stated), the half-maximal activity concentration (AC50) under setting [1] was 35.5 µM [falling, single point].
Still for that read-out and setting: to `CCN1CCN(c2ncnc3c2cnn3-c2ccccc2)CC1` belongs 7.31 µM [rising, single point]; to `Cc1cccc(OCC(=O)N(Cc2ccc(C)o2)C2CCS(=O)(=O)C2)c1` (configuration not stated), 4.47 µM [falling, partial curve]; to `Cc1ccc(/C=N/NC(=O)c2ccc3c(c2)OCCO3)s1`, 3.98 µM [falling, partial curve].
Take `CCOc1ccccc1OCC(=O)N/N=C(\C)Cc1ccc(OC)cc1`: the half-maximal activity concentration (AC50) was 29.1 µM [rising, single point] under setting [1] and 10.3 µM [falling, partial curve] under setting [2].
Consider `O=C(O)CCC(=O)Nc1sc2c(c1C(=O)Nc1cccc3ccccc13)CCCCC2`, for which the AC50 under setting [1] is 29.1 µM [falling, single point].
Still for that read-out and setting: the same measure for `Cc1c(NC(=S)SCc2ccccc2)c(=O)n(-c2ccccc2)n1C`: 11.2 µM [falling, single point].
On to `CC(=O)C(Sc1nnnn1-c1ccc(O)cc1)c1ccccc1` (configuration not stated), for which the half-maximal activity concentration (AC50) under setting [1] is 12.6 µM [rising, partial curve, poor fit].
`Cc1c(C(c2ccc(N(C)C)cc2)c2c(C)n(C)n(-c3ccccc3)c2=O)c(=O)n(-c2ccccc2)n1C`: the AC50 under setting [1] was 11.2 µM [rising, single point].
The same measure, in the same setting: to `CC(CN1CCOCC1)OC(=O)C1COc2ccccc2O1` (configuration not stated) belongs 2.51 µM [rising, partial curve]; to `O=C(Nc1nnc(SCc2ccccc2F)s1)c1ccco1`, 3.26 µM [rising, partial curve, poor fit]; to `Cc1[nH]n(-c2ccc([N+](=O)[O-])cc2)c(=O)c1C=NCCN1CCN(C(=O)c2cccc(F)c2)CC1`, 14.6 µM [falling, partial curve].
On the same count and under the same terms, to `CN1CCC(=NNC(=O)C(=O)Nc2cccc(Br)c2)CC1` belongs 10 µM [falling, partial curve, poor fit]; to `CCOc1cc(C(=O)Nc2cc(=O)n(C)c(=O)n2C)cc(OCC)c1OCC`, 0.184 µM [falling, full curve, poor fit].
Still for that read-out and setting: the same measure for `COc1cccc(C(=O)NC2(C(F)(F)F)N=C3SCCN3C2=O)c1` (configuration not stated): 2.06 µM [falling, partial curve, poor fit]; for `CCOC(=O)C1(Cc2ccc(OC)cc2)CCN(C(=O)C2CC(=O)N(C3CC3)C2)CC1` (configuration not stated): 35.5 µM [rising, single point].
As to `COc1cc2ccccc2cc1C(=O)OCc1nc2ccsc2c(=O)[nH]1`, the AC50 under setting [1] was 0.517 µM [rising, full curve].
For `COc1ccc(S(=O)(=O)N(CCc2ccccc2)CC(=O)O)cc1C`, under setting [1], the AC50 was 6.51 µM [falling, single point].
Same read-out and setting: to `C[C@@]12C(=O)N(c3cccc(F)c3)C(=O)N1[C@H](c1ccc(Cl)cc1)[C@@H]1C(=O)N(C3CCCCC3)C(=O)[C@@H]12` belongs 10.3 µM [falling, partial curve, poor fit]; to `Cc1ccc(-c2n[nH]c(=S)n2/N=C/C=C/c2ccccc2[N+](=O)[O-])cc1`, 11.6 µM [rising, partial curve]; to `O=C1CN(C(=O)Cn2ncc(Cl)c(Cl)c2=O)c2ccccc2N1`, 10 µM [falling, partial curve, poor fit].
Take `COc1ccc(S(=O)(=O)c2ccccc2)cc1NS(=O)(=O)c1cccc(C(=O)O)c1`: under setting [1], the half-maximal activity concentration (AC50) was 3.26 µM [falling, single point].
Same read-out and setting: the same measure for `O=C(NC(=S)Nc1cccc2[nH]ncc12)c1ccccc1`: 11.2 µM [falling, single point].
Same read-out and setting: to `COc1cccc(C2=NN(C(=O)c3ccco3)C(c3ccco3)C2)c1` (configuration not stated) belongs 20 µM [falling, partial curve, poor fit].
Turning to `COC(=O)c1ccc(-c2nc3ccccc3o2)cc1`, the AC50 under setting [1] is 0.631 µM [rising, full curve, poor fit].
Still for that read-out and setting: to `COc1ccc(C(=O)NNC(=S)Nc2ccccc2)cc1` belongs 6.31 µM [falling, partial curve]; to `Nc1nnc(-c2cn(-c3ccccc3)nc2-c2ccccc2)o1`, 1.84 µM [rising, full curve, poor fit]; to `CC(=O)c1cnc(Nc2ccc(C)cc2)s1`, 12.6 µM [rising, partial curve].
The same measure, in the same setting: the same measure for `Clc1ccc(CSc2nc3ccncc3[nH]2)cc1`: 14.6 µM [falling, single point].

By AC50 is commonly meant the concentration giving half of the maximal activity seen.

Values taken from PubChem BioAssay AID493014 (National Center for Advancing Translational Sciences (NCATS), 2011).
